PubChem BioAssay AID1224830 | NIAID – 2016
Test: 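Genes whose knock-down alters the TNF-alpha reporter response to LPS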 (primary screen). Cells: human THP-1 monocytic leukaemia cells, TNF dual-luciferase reporter clone, PMA-differentiated to macrophage-like cells. Knock-down reagent: siRNA pool against human genes, 50 nM. Time to read-out: LPS for 4 h, given about 3 days after siRNA transfection. Treatment: bacterial LPS (TLR4 ligand), 10 ng/ml. Read-out: 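Ratio of firefly to renilla light, scaled to the plate median and expressed as a robust z-score per replicate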. Direction: TNF reporter robust z-score: higher = stronger TNF reporter response to LPS. Rule for the call: 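a well is active when its z-score exceeds 2.8 or falls below -1.5; control wells carry no call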.
Here is one part, drawn at random, of about 18,000 reagents tested. In the full data, about 2,900 (16%) were called active. 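Calls are made per well; low scores hint the gene aids the LPS response, high scores that it dampens it.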 A number with no mark means an inactive call. Repeated entries: four replicate wells of each siRNA pool.

CST4 [SID315448149]: TNF reporter robust z-score = -0.01
CST4 [SID315448149]: TNF reporter robust z-score = 0.62
CST4 [SID315448149]: TNF reporter robust z-score = -0.51
CST4 [SID315448149]: TNF reporter robust z-score = -0.37
OR4C11 [SID315463160]: TNF reporter robust z-score = 0.07
OR4C11 [SID315463160]: TNF reporter robust z-score = -0.55
OR4C11 [SID315463160]: TNF reporter robust z-score = 0.26
OR4C11 [SID315463160]: TNF reporter robust z-score = 1.24
CCN4 [SID315452866]: TNF reporter robust z-score = -0.45
CCN4 [SID315452866]: TNF reporter robust z-score = -0.6
CCN4 [SID315452866]: TNF reporter robust z-score = -0.94
CCN4 [SID315452866]: TNF reporter robust z-score = -1.75 (active)
GALE [SID315448822]: TNF reporter robust z-score = 0.14
GALE [SID315448822]: TNF reporter robust z-score = -0.31
GALE [SID315448822]: TNF reporter robust z-score = 0.61
GALE [SID315448822]: TNF reporter robust z-score = 1.07
SOX5 [SID315451583]: TNF reporter robust z-score = -1.35
SOX5 [SID315451583]: TNF reporter robust z-score = -0.95
SOX5 [SID315451583]: TNF reporter robust z-score = -0.76
SOX5 [SID315451583]: TNF reporter robust z-score = -0.15
RFFL [SID315461432]: TNF reporter robust z-score = 1.35
RFFL [SID315461432]: TNF reporter robust z-score = 1.06
RFFL [SID315461432]: TNF reporter robust z-score = -1.47
RFFL [SID315461432]: TNF reporter robust z-score = -0.88
FMNL2 [SID315461244]: TNF reporter robust z-score = -1.29
FMNL2 [SID315461244]: TNF reporter robust z-score = -1.79 (active)
FMNL2 [SID315461244]: TNF reporter robust z-score = -1.36
FMNL2 [SID315461244]: TNF reporter robust z-score = -1.11
TAOK2 [SID315453214]: TNF reporter robust z-score = 0.32
TAOK2 [SID315453214]: TNF reporter robust z-score = -0.77
TAOK2 [SID315453214]: TNF reporter robust z-score = -1.15
TAOK2 [SID315453214]: TNF reporter robust z-score = -0.34
SGSM3 [SID315456054]: TNF reporter robust z-score = 0.19
SGSM3 [SID315456054]: TNF reporter robust z-score = 0.74
SGSM3 [SID315456054]: TNF reporter robust z-score = 0.01
SGSM3 [SID315456054]: TNF reporter robust z-score = 0.02
EIF2AK1 [SID315455921]: TNF reporter robust z-score = -1.08
EIF2AK1 [SID315455921]: TNF reporter robust z-score = 0.69
EIF2AK1 [SID315455921]: TNF reporter robust z-score = 0.03
EIF2AK1 [SID315455921]: TNF reporter robust z-score = 0.76
TCF4 [SID315451782]: TNF reporter robust z-score = -0.84
TCF4 [SID315451782]: TNF reporter robust z-score = 1.24
TCF4 [SID315451782]: TNF reporter robust z-score = 0.84
TCF4 [SID315451782]: TNF reporter robust z-score = 1.77
RAB5C [SID315451021]: TNF reporter robust z-score = 0.54
RAB5C [SID315451021]: TNF reporter robust z-score = 1.53
RAB5C [SID315451021]: TNF reporter robust z-score = 0.94
RAB5C [SID315451021]: TNF reporter robust z-score = 2.4
